{"source": "PubChem BioAssay AID1259405 (NCATS, 2018)", "aim": "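Knock-downs that lift recombinant protein yield in hamster ovary cells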 (primary screen)", "system": "Chinese hamster CHO-K1 ovary cells with stable secreted eGFP expression", "knock-down reagent": "single siRNA against mouse genes, 0.8 pmol siRNA per well (2 µl of 400 nM stock)", "duration": "3 days", "read-out": "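Per-well intracellular GFP measured by laser scanning cytometry, plus viability from ATP luminescence, each relative to plate median of non-targeting control wells, in %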", "reading the numbers": "GFP, % of control: higher = more GFP per well, higher productivity; viability (ATP), % of control: higher = more viable cells (more ATP)", "active means": "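a knock-down is called active if GFP reaches 120% or more of non-targeting control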", "note": "Shown is one part, drawn at random, of about 50,000 reagents. Of all reagents, about 4,000 (8%) got an active call. 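Mouse siRNA library applied to hamster cells; one well for each siRNA.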 Reagents against one gene are numbered here."}
{"target": "Tlcd2", "reagent no.": 1, "GFP, % of control": 66.7, "viability (ATP), % of control": 74.5, "outcome": "inactive"}
{"target": "Tlcd2", "reagent no.": 2, "GFP, % of control": 95.4, "viability (ATP), % of control": 65.3, "outcome": "inactive"}
{"target": "Tlcd2", "reagent no.": 3, "GFP, % of control": 98.8, "viability (ATP), % of control": 117, "outcome": "inactive"}
{"target": "Hax1", "reagent no.": 1, "GFP, % of control": 59.5, "viability (ATP), % of control": 64.5, "outcome": "inactive"}
{"target": "Hax1", "reagent no.": 2, "GFP, % of control": 138, "viability (ATP), % of control": 126, "outcome": "active"}
{"target": "Hax1", "reagent no.": 3, "GFP, % of control": 72.7, "viability (ATP), % of control": 71.8, "outcome": "inactive"}
{"target": "Or10ak16", "reagent no.": 1, "GFP, % of control": 47.7, "viability (ATP), % of control": 49.9, "outcome": "inactive"}
{"target": "Or10ak16", "reagent no.": 2, "GFP, % of control": 55.1, "viability (ATP), % of control": 64.5, "outcome": "inactive"}
{"target": "Or10ak16", "reagent no.": 3, "GFP, % of control": 95.3, "viability (ATP), % of control": 79.4, "outcome": "inactive"}
{"target": "Rxfp1", "reagent no.": 1, "GFP, % of control": 94.6, "viability (ATP), % of control": 69.8, "outcome": "inactive"}
{"target": "Rxfp1", "reagent no.": 2, "GFP, % of control": 60.3, "viability (ATP), % of control": 58.2, "outcome": "inactive"}
{"target": "Rxfp1", "reagent no.": 3, "GFP, % of control": 90.3, "viability (ATP), % of control": 84.4, "outcome": "inactive"}
{"target": "Slc25a48", "reagent no.": 1, "GFP, % of control": 54.3, "viability (ATP), % of control": 81.7, "outcome": "inactive"}
{"target": "Slc25a48", "reagent no.": 2, "GFP, % of control": 95.7, "viability (ATP), % of control": 67, "outcome": "inactive"}
{"target": "Slc25a48", "reagent no.": 3, "GFP, % of control": 91.4, "viability (ATP), % of control": 88.9, "outcome": "inactive"}
{"target": "Slc12a1", "reagent no.": 1, "GFP, % of control": 61.8, "viability (ATP), % of control": 51.1, "outcome": "inactive"}
{"target": "Slc12a1", "reagent no.": 2, "GFP, % of control": 59.3, "viability (ATP), % of control": 62, "outcome": "inactive"}
{"target": "Slc12a1", "reagent no.": 3, "GFP, % of control": 62.1, "viability (ATP), % of control": 96.3, "outcome": "inactive"}
{"target": "Zfp33b", "reagent no.": 1, "GFP, % of control": 56, "viability (ATP), % of control": 72.6, "outcome": "inactive"}
{"target": "Zfp33b", "reagent no.": 2, "GFP, % of control": 75.9, "viability (ATP), % of control": 77.8, "outcome": "inactive"}
{"target": "Zfp33b", "reagent no.": 3, "GFP, % of control": 84.4, "viability (ATP), % of control": 66.4, "outcome": "inactive"}
{"target": "Acads", "reagent no.": 1, "GFP, % of control": 89.5, "viability (ATP), % of control": 70.6, "outcome": "inactive"}
{"target": "Acads", "reagent no.": 2, "GFP, % of control": 67.8, "viability (ATP), % of control": 70.5, "outcome": "inactive"}
{"target": "Acads", "reagent no.": 3, "GFP, % of control": 94.6, "viability (ATP), % of control": 95.2, "outcome": "inactive"}
{"target": "Foxred1", "reagent no.": 1, "GFP, % of control": 57, "viability (ATP), % of control": 53.9, "outcome": "inactive"}
{"target": "Foxred1", "reagent no.": 2, "GFP, % of control": 73, "viability (ATP), % of control": 84.8, "outcome": "inactive"}
{"target": "Foxred1", "reagent no.": 3, "GFP, % of control": 97.8, "viability (ATP), % of control": 100, "outcome": "inactive"}

Look-ups from the list.
For “GFP, % of control”, Slc12a1 #1 is entered as 61.8
Result for Acads #1 under “viability (ATP), % of control”: 70.6
